# In patent US20240091292A1, “METHODS FOR TREATMENT OF HUMAN CANCERS USING CANNABIS COMPOSITIONS” (Apollon Formularies PLC, priority 2021, published 2024):
# Experiments:
# Assay type in all cases: cell-based
# A-549 = assay: 3D Cell Proliferation Screen, A-549; settings: Homo sapiens, A549, 120 h; A-549 lung spheroids, 5 days; positive control
# Protocol: (§1) Experimental Methods: 3D Cell Proliferation Assay
# (§2) Cells were seeded at 1000 cells/well in media in 384-well Corning® Spheroid microplates. The microplates were incubated at 37 C in 5% CO2 incubator to allow for spheroid formation.
# (§3) Aliquots of each sample were vortexed and centrifuged at 3,000 rpm (800 g) for 5 minutes at room temperature. Supernatants (500-fold stocks) were stored under sterile conditions at 4 C.
# (§4) On the day of the assay, a 9-point dose-response of each 500-fold stock was prepared and added to the spheroid plates to provide final assay concentrations ranging from 1e-04 to 1-fold, in 0.2% DMSO. Final assay conditions for each sample are shown on Table 1.
# (§5) Assay plates were incubated at 37 C in an atmosphere containing 5% CO2 for 5 days. Staurosporine, a compound known to induce cellular apotosis, was used a positive control for terminated cell proliferation. Cell viability was determined at 5 days post-compound addition. Briefly, 3D-CellTiter Glow™ reagent (Promega) was added to assay plates per the manufacturer's recommendations. Plates were shaken until spheroids were lysed and luminescence was read at room temperature.
# (§6) Cell proliferation end point was analyzed as Percent of Control (POC) using the following formula: […]
# (§7) EC50, IC50 and GI50 values were calculated using nonlinear regression to fit data to a sigmoidal 4-point, 4-parameter log-logistic dose response model: […]
# BT-474 = assay: 3D Cell Proliferation Screen, BT-474; settings: Homo sapiens, 120 h; BT-474 breast spheroids, 5 days; positive control
# Protocol: as §1, §2, §3, §4, §5, §6, §7
# PC-3 = assay: 3D Cell Proliferation Screen, PC-3; settings: Homo sapiens, 120 h; PC-3 prostate spheroids, 5 days; positive control
# Protocol: as §1, §2, §3, §4, §5, §6, §7
# 22Rv-1 = assay: 3D Cell Proliferation Screen, 22Rv-1; settings: Homo sapiens, 22Rv1, 120 h; 22Rv-1 prostate spheroids, 5 days; positive control
# Protocol: as §1, §2, §3, §4, §5, §6, §7
# A-431 = assay: 3D Cell Proliferation Screen, A-431; settings: Homo sapiens, 120 h; A-431 skin spheroids, 5 days; positive control
# Protocol: as §1, §2, §3, §4, §5, §6, §7
# MDA-MB-231 = assay: 3D Cell Proliferation Screen, MDA-MB-231; settings: Homo sapiens, 120 h, MDA-MB-231 breast spheroids, 5 days, positive control
# Protocol: as §1, §2, §3, §4, §5, §6
# A relative cell count EC50 is the concentration of the test compound that produces a response half-way between the maximum and baseline. Relative cell count IC50 is the concentration of the test compound that produces 50% of the cell proliferation inhibitory response or 50% cytotoxicity level. GI50 is the concentration of the test compound that produces 50% reduction in proliferation of cancer cells relative to T0. The output of each biomarker is fold-increase over vehicle control background normalized to the relative cell count in each well.
# EC50, IC50 and GI50 values were calculated using nonlinear regression to fit data to a sigmoidal 4-point, 4-parameter log-logistic dose response model:
# Curve-fitting and EC50 calculations were performed using the R statistical software package with R's drc library.
# NCI-H460 = assay: 3D Cell Proliferation Screen, NCI-H460; settings: Homo sapiens, 120 h; NCI-H460 lung spheroids, 5 days; positive control
# Protocol: as §1, §2, §3, §4, §5, §6, §7
smiles,measurement,setting,value
CN[C@@H]1C[C@H]2O[C@@](C)([C@@H]1OC)n1c3ccccc3c3c4c(c5c6ccccc6n2c5c31)C(=O)NC4 [Staurosporine],IC50,A-549,20 nM
same,EC50,BT-474,44 nM
same,IC50,BT-474,44 nM
same,EC50,PC-3,2 nM
same,EC50,22Rv-1,19 nM
same,IC50,22Rv-1,20 nM
same,EC50,A-431,1 nM
same,IC50,A-431,1 nM
same,EC50,MDA-MB-231,1 nM
same,IC50,MDA-MB-231,1 nM
same,GI50,MDA-MB-231; relative to T0,1 nM
same,EC50,NCI-H460,20 nM
same,IC50,NCI-H460,21 nM
